From PubChem BioAssay AID493014 (National Center for Advancing Translational Sciences (NCATS), 2011)
Several values for one entry are separate records, joined by “and”; a condition that tells them apart may be missing. Identical values can stand only once. The list shows a part of the results. These are further read-outs of the screen, such as a control signal, another cell line or another target. No call is given for them. The list favours compounds with an active or inconclusive main result. Potencies come from curve fits of mixed quality, noted in brackets.

Experiment: qHTS Assay to Find Inhibitors of Chronic Active B-Cell Receptor Signaling
Conditions: ABC-DLBCL IkBa-CBG/CBR reporter, luminescence ratio (green luciferase fused to IkBa over red control in TMD8 lymphoma cells), 4 h
How it was run: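 Concentration-response series (up to 46 uM) were applied to TMD8 dual-reporter cells for 4 h at 37C with doxycycline. Green/red ratio, after filter-overlap correction, defined %Activity; red signal alone was normalised to basal cells and zero luminescence.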

[1] = measured here: CBR red luminescence, cell number
[2] = measured here: IkBa-CBG green luminescence

Structure (SMILES)	AC50 [1]	AC50 [2]
Clc1ccccc1-c1nnc2sc(-c3ccc(Br)o3)nn12	17.8 µM [falling, partial curve, poor fit]	
C=CCn1cccc(C(=O)Nc2ccc(N(C)C)cc2)c1=O	35.5 µM [falling, single point]	
Clc1ccccc1CN1CCN(c2ncccn2)CC1	14.1 µM [rising, single point]	
COc1ccc(C(c2nnnn2C2CCCC2)N2CCc3ccccc3C2)cc1OC (stereo not drawn)	12.6 µM [falling, single point]	
N#Cc1c[nH]n2c(=O)c3c(nc12)CCCC3	4.47 µM [falling, partial curve, poor fit]	
CN1CCN(S(=O)(=O)c2ccc(NC(=O)C3CCCO3)cc2)CC1 (stereo not drawn)	23.1 µM [rising, single point]	
CC1CCc2nc(/C(C#N)=C/c3ccncc3)sc2C1 (stereo not drawn)	10 µM [rising, partial curve]	
C/C(=N/NC(=O)c1ccoc1C)c1ccc(NC(=O)C2CCCC2)cc1	6.51 µM [falling, partial curve]	
CN(CC(=O)Nc1ccc(Cl)cc1)C(=O)c1cccc(S(=O)(=O)N2CCN(Cc3ccccc3)CC2)c1	29.1 µM [falling, single point]	
CCOC(=O)c1nn(-c2ccc(Cl)cc2)c(C)cc1=O	15.8 µM [rising, single point]	
O=C(NN=C1C2CC3CC1CC(Cl)(C3)C2)c1cccs1	35.5 µM [falling, partial curve, poor fit]	
O=C(CCCOc1ccc(Cl)cc1Cl)Nc1ccc(O)cc1C(=O)O	0.355 µM [rising, partial curve, poor fit]	
C=CCOC(=O)C1=C(C)NC(SCC(=O)Nc2nccs2)=C(C#N)C1c1ccc(Cl)cc1 (stereo not drawn)	35.5 µM [falling, single point]	12.6 µM [rising, partial curve, poor fit]
CSc1ccc(CNc2ccc(Cl)cc2)cc1	2.51 µM [rising, partial curve, poor fit]	
COc1ccc(-c2cn(-c3ccc(C)cc3)c(=O)n2CC(=O)Nc2cccc(F)c2)cc1	14.6 µM [rising, partial curve, poor fit]	
Cc1nc(C)c2c(c1C(F)(F)F)-c1ccccc1C2(F)F	29.1 µM [falling, partial curve, poor fit]	
CN(C)Cc1c(C(=O)Nc2ccccc2)[nH]c2ccccc12	16.4 µM [falling, partial curve, poor fit]	
CCOC(=O)NNC(=O)c1[nH]c2ccc(Br)cc2c1-c1ccccc1	25.1 µM [falling, single point]	
CC12CC3CC(C)(C1)CC(Nc1nc(N4CCOCC4)nc4ccccc14)(C3)C2	0.501 µM [rising, full curve, poor fit]	
COc1ccc(C(=O)NC(NC(=O)c2ccc(OC)c(OC)c2)c2ccccc2F)cc1OC	16.4 µM [rising, partial curve, poor fit]	
CC(=N/O)/C(C)=N\NC(=O)c1ccccn1	20 µM [falling, single point]	

Structure (SMILES)	AC50 [1]	AC50 [2]
N#CC1=C(N)SC(N)=C(C#N)C1Cc1ccccc1	17.8 µM [falling, partial curve, poor fit]	
CCOC(=O)Cn1c(=N)n(CCOc2ccc3ccccc3c2)c2ccccc21	29.1 µM [falling, single point]	
COc1cc(NC(=O)CN(C)S(=O)(=O)c2ccc(C)cc2)cc(OC)c1	0.00411 µM [rising, full curve, poor fit]	
COc1ccc(NC(=O)Nc2ccc(F)c(F)c2)c(OC)c1	3.98 µM [rising, partial curve, poor fit]	
CCOC(=O)c1c(C)[nH]c(C(=O)OCC(=O)N(CC(C)C)C2CCS(=O)(=O)C2)c1C (stereo not drawn)	16.4 µM [falling, partial curve, poor fit]	
COc1ccc(-c2nn(CC(=O)N(C)C)c(=O)c3ccccc23)cc1	25.9 µM [rising, single point]	
Cc1nc2ccccn2c1-c1ccnn1S(=O)(=O)c1ccc(F)cc1	35.5 µM [falling, single point]	
COC(=O)C1=C(C(=O)OC)[C@@H]2Nc3ccccc3[C@@]23C[C@@H](C(=O)OC)N(C(=O)c2ccc(Br)cc2)C3=N1	35.5 µM [rising, partial curve, poor fit]	
CCCc1cc2c(cc1NS(=O)(=O)c1ccc(CCNC(C)=O)cc1)OCO2	0.708 µM [falling, partial curve]	
Cc1cc(/C=C2/NC(=O)N(Cc3ccccc3F)C2=O)c(C)n1-c1ccccn1	23.1 µM [falling, single point]	
Cn1c(-c2ccc3c(c2)OCO3)cnc1NCc1ccc(Cl)cc1	0.411 µM [rising, partial curve, poor fit]	
CSc1ccccc1NC(=O)CSc1nnnn1-c1ccccc1SC	1.16 µM [falling, full curve, poor fit]	
COc1ccccc1CCN1C(=S)NC(C)(C)CC1(C)O (stereo not drawn)	11.2 µM [falling, partial curve, poor fit]	
O=C(Cn1ncc2c(=O)oc3ccccc3c21)NC1CC1	28.2 µM [falling, single point]	
CCN(C(=O)CN1CCCCCC1)c1c(N)n(Cc2ccccc2)c(=O)[nH]c1=O	29.1 µM [falling, partial curve, poor fit]	
O=C(CCc1nnc(-c2ccccc2)o1)c1ccc(Cl)cc1	6.31 µM [rising, single point]	
Cc1cccc(C(=O)NNC(=O)c2ccc(O)cc2)c1	10 µM [falling, partial curve]	
O=c1[nH]c2ccccc2nc1/C=C/c1ccc(Cl)cc1	0.316 µM [falling, full curve, poor fit]	
O=c1nc(-c2ccccc2)cc(C(F)(F)F)[nH]1	3.55 µM [rising, single point]	
O=C1CC(Sc2ncn[nH]2)C(=O)N1c1ccccc1 (stereo not drawn)	23.1 µM [falling, single point]	
CS(=O)(=O)c1ccc(C(=O)CN2C(=O)NC3(CCCc4ccccc43)C2=O)cc1 (stereo not drawn)	6.51 µM [rising, single point]	

Structure (SMILES)	AC50 [1]	AC50 [2]
COc1cccc2cc(C(=O)CS(=O)(=O)c3ccc(Cl)cc3)c(=O)oc12	35.5 µM [falling, single point]	
O=C(CSc1ccc(-c2ccc(Cl)cc2)nn1)N1CCCc2ccccc21	23.1 µM [falling, partial curve]	
Cc1ccccc1OCC(=O)OCC(=O)Nc1ccc(Cl)cn1	23.1 µM [rising, partial curve, poor fit]	
O=C(Nc1ccc(OCc2ccccc2)cc1)c1cccs1	8.91 µM [rising, partial curve, poor fit]	
CC1(C)C2CCC1(CS(=O)(=O)NC1CCCC1)C(=O)C2 (stereo not drawn)	22.4 µM [falling, partial curve, poor fit]	
CC[C@]12c3[nH]c4cc(CCC(=O)N(C)C)ccc4c3CCN1C(=O)[C@@H](CC(=O)NCCc1ccccn1)C[C@@H]2C(=O)N1CCN(C(=O)c2ccco2)CC1	29.1 µM [rising, single point]	
COc1cccc(C2C3=C(CC(C)(C)CC3=O)Nc3cc4c(cc32)OCO4)c1 (stereo not drawn)	4.61 µM [falling, full curve, poor fit]	
COc1ccc(NC(=O)CSCC(=O)N(C)Cc2c(F)cccc2Cl)cc1	14.6 µM [rising, partial curve]	
COC(=O)c1ccccc1NC(=O)c1c(O)c2c([nH]c1=O)CCCC2	0.103 µM [rising, full curve, poor fit]	
CC1=NN(c2ccc(C)cc2C)C(=O)C1C(c1cccc(O)c1)C1C(=O)N(c2ccc(C)cc2C)N=C1C (stereo not drawn)	29.1 µM [falling, single point]	
CC(C)OC(=O)c1cccc(NC(=O)c2ccccc2)c1	29.1 µM [falling, single point]	
CCOc1ccc(CSC2=NCCN2)cc1[N+](=O)[O-]		20.6 µM [falling, partial curve, poor fit]
CC1(C)CCCN(Cc2c(O)ccc3c(=O)c(-c4nc5ccccc5s4)c(N)oc23)C1	1.26 µM [falling, partial curve, poor fit]	
COc1ccccc1-n1nnnc1SCC(=O)Nc1ccc(C)c(N)c1	31.6 µM [falling, single point]	
CCC(C)[C@H](NC(=O)NCc1ccccc1Cl)C(=O)OC (stereo partly drawn)	35.5 µM [falling, partial curve, poor fit]	
CC(C)(C)NC(=S)N1CCC(C(=O)c2ccc(Cl)cc2)CC1	7.94 µM [rising, partial curve, poor fit]	
O=c1c2c(-c3ccccc3)ccnc2[nH]n1-c1ccccc1	1.78 µM [falling, full curve] and 3.98 µM [falling, full curve]	
COc1cccc(C2NC(=O)CCC2[N+](=O)[O-])c1OC (stereo not drawn)	3.98 µM [rising, partial curve, poor fit]	
COc1ccc(CN(C)C(=O)c2cccc(S(=O)(=O)N3CCN(c4ccccc4)CC3)c2)c(OC)c1OC	25.9 µM [falling, partial curve, poor fit]	
O=C(c1cccc(S(=O)(=O)NCc2ccccc2)c1)N1CCCC1	7.94 µM [rising, partial curve]	
